Measurements: patent US6727284B2 (priority 1997, dated 2004)
At least one structure is not confirmed: it was looked up by name or label, or the drawing left a doubt.

Columns and labels:
[1] = Requirement for inotropes/other drugs following open heart surgery in pediatric patients; type: in vivo, human; conditions: bolus plus 24 h infusion, data not shown
[2] = pilot project in pediatric patients; Collins-Nakai et al. 1995; cited from earlier work
[3] = test system: pyruvate dehydrogenase complex (PDC); conditions: adult studies, CABG patients; Thannikkuto et al. 1994; cited from earlier work
[4] = test system: previously ischemic hearts; conditions: experimental studies; cited from earlier work

## O=C(O)C(Cl)Cl [dichloroacetate]
[1]
  drugs (e.g. inotropes) required following surgery: require fewer drugs (e.g. inotropes) following surgery
[2]
  requirements for inotropes in immediate post operative period: significant drop in the requirements for inotropes
[3]
  PDC activity in heart muscle: significantly stimulates PDC in heart muscle
[4]
  glucose oxidation during reperfusion: dramatic stimulation of glucose oxidation
